Measured data: PubChem BioAssay AID1053208 (Peter MacCallum Cancer Centre, 2014)
Test: 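Synthetic lethal interactions between gene loss and doxorubicin in osteosarcoma cells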 (primary screen). Cells: mouse osteosarcoma cells, early-passage culture from an engineered mouse model of fibroblastic bone tumour. Knock-down reagent: siRNA pool against mouse genes, 40 nM. Timing: about 120 h (48 h before drug, then 72 h with drug). Conditions: doxorubicin 100 nM for 72 h, roughly 30-40% inhibitory dose. Measurement: 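Luminescent ATP signal taken as viability with or without 100 nM doxorubicin for 72 h; mean of two wells set against non-targeting siRNA and turned into robust z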. Direction: viability z-score with doxorubicin: higher = more viable cells under doxorubicin; viability z-score without drug: higher = more viable cells with knock-down alone. Rule for the call: 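a pool counts as active when its viability z-score with doxorubicin is -2 or below and its z-score without drug lies between -2 and 2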.
The deposit covers about 17,000 reagents; shown is a random part of them. Over the whole deposit, 788 (4.7%) were called active. 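Calls rest on z-score classes alone; an extra cut-off of viability at most 70% of control was not applied to them.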 Not all columns of the deposit are shown.

Zp1 (GeneID 22786) [SID152317043] → combined z-score class = low cell count without drug only; viability z-score with doxorubicin = -1.57; viability z-score without drug = -2.87; Outcome = inactive
Wasf1 (GeneID 83767) [SID152309446] → combined z-score class = no change with or without drug; viability z-score with doxorubicin = 0; viability z-score without drug = 0; Outcome = inactive
P4ha1 (GeneID 18451) [SID152292709] → combined z-score class = no change with or without drug; viability z-score with doxorubicin = 0.56; viability z-score without drug = 0; Outcome = inactive
Hspb2 (GeneID 69253) [SID152316865] → combined z-score class = high cell count with doxorubicin only; viability z-score with doxorubicin = 2.47; viability z-score without drug = -0.84; Outcome = inactive
Hoxd12 (GeneID 15432) [SID152262520] → combined z-score class = no change with or without drug; viability z-score with doxorubicin = -1.35; viability z-score without drug = -0.51; Outcome = inactive
Lenep (GeneID 57275) [SID152277388] → combined z-score class = low cell count with doxorubicin only; viability z-score with doxorubicin = -2.36; viability z-score without drug = -1.85; Outcome = active
Gata2 (GeneID 14461) [SID152320656] → combined z-score class = no change with or without drug; viability z-score with doxorubicin = 1.8; viability z-score without drug = -0.84; Outcome = inactive
Abcc5 (GeneID 27416) [SID152308661] → combined z-score class = no change with or without drug; viability z-score with doxorubicin = -0.67; viability z-score without drug = 1.01; Outcome = inactive
Terb1 (GeneID 320022) [SID152317673] → combined z-score class = no change with or without drug; viability z-score with doxorubicin = -0.9; viability z-score without drug = 0.67; Outcome = inactive
Ube2dnl1 (GeneID 237009) [SID152287843] → combined z-score class = no change with or without drug; viability z-score with doxorubicin = -1.24; viability z-score without drug = -0.34; Outcome = inactive
Or2y3 (GeneID 258867) [SID152322633] → combined z-score class = no change with or without drug; viability z-score with doxorubicin = -0.45; viability z-score without drug = -1.52; Outcome = inactive
Gng8 (GeneID 14709) [SID152273895] → combined z-score class = no change with or without drug; viability z-score with doxorubicin = 0.34; viability z-score without drug = 1.18; Outcome = inactive

An excerpt from the list above, for reference:
Abcc5 (GeneID 27416) [SID152308661] → combined z-score class = no change with or without drug; viability z-score with doxorubicin = -0.67; viability z-score without drug = 1.01; Outcome = inactive
Terb1 (GeneID 320022) [SID152317673] → combined z-score class = no change with or without drug; viability z-score with doxorubicin = -0.9; viability z-score without drug = 0.67; Outcome = inactive

Additional results follow.
Synpo2l (GeneID 68760) [SID152342459] → combined z-score class = no change with or without drug; viability z-score with doxorubicin = 1.35; viability z-score without drug = -0.51; Outcome = inactive
Tspan6 (GeneID 56496) [SID152313633] → combined z-score class = no change with or without drug; viability z-score with doxorubicin = 1.12; viability z-score without drug = 0.84; Outcome = inactive
Usp25 (GeneID 30940) [SID152335788] → combined z-score class = no change with or without drug; viability z-score with doxorubicin = -1.24; viability z-score without drug = -1.52; Outcome = inactive
Or5w11 (GeneID 258652) [SID152305857] → combined z-score class = no change with or without drug; viability z-score with doxorubicin = 1.01; viability z-score without drug = 0.17; Outcome = inactive
Atpsckmt (GeneID 68073) [SID152269122] → combined z-score class = no change with or without drug; viability z-score with doxorubicin = 0; viability z-score without drug = 0.84; Outcome = inactive
Foxn3 (GeneID 71375) [SID152339189] → combined z-score class = high cell count with and without drug; viability z-score with doxorubicin = 2.92; viability z-score without drug = 2.19; Outcome = inactive
Anapc11 (GeneID 66156) [SID152278365] → combined z-score class = no change with or without drug; viability z-score with doxorubicin = -1.24; viability z-score without drug = -0.84; Outcome = inactive
